Library screening results

Source: ChEMBL document CHEMBL3988442, “University of Dundee, Small-Polar-MMV Screening Library” (2021).

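Viability assay of Plasmodium falciparum sporozoites; the read-out is not stated. The concentration is filed as 10 mM, unlikely as a test dose, so the dose is not known. Higher reads as lower viability (inferred: compounds with an IC50 in retests scored well above the rest). Strong results were mostly tested again. About 34,000 compounds were tested under these conditions; 0.84% (about 280) showed 50% or more at least once.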

Results are given as percent effect.
The controls that fix the scale are not given in the record; negative values are as filed.
Compounds were drawn at random from those tested, without regard to their results.
Two or more numbers in one place are separate tests of the same structure; such repeats can differ widely.

Cc1cc(F)ccc1OC1(C(=O)O)CCN(Cc2ccncc2)CC1 read -2.79%.
O=C(N1CCOCC1)N1CCCC(c2ncncc2-c2ccncc2)C1 (stereo not drawn) read 13.69%.
Cc1ccc(CN(C)C(=O)CN2CCOC(Cn3cncn3)C2)o1 (stereo not drawn) read 6.99%.
CCN1C(=O)CCC12CCCN(Cc1nccs1)CC2.O=C(O)C(F)(F)F (stereo not drawn) read -14.65%.
O=C(O)C(F)(F)F.[H][C@@]12CCN(Cc3cnn(C)c3)[C@@]1([H])CCN2C(=O)Cc1cccc(F)c1 read -17.62%.
O=C(O)C(F)(F)F.[H][C@@]12CN(C(=O)C3CC=CC3)C[C@]1([H])C(=O)N(Cc1ccncc1)C2 read -13%.
Cc1cnn(CC2CCCN2C(=O)Cc2ccc(C)nc2)c1 (stereo not drawn) read -22.27% and -15.77% and 44.89%.
Cn1cccc1CNC(=O)CCCc1nnc2ccccn12 read -4.825%.
CN(C)c1ncc(-c2ccc(C(N)=O)cc2)c(C2CCNC2)n1.Cl (stereo not drawn) read 7.229%.
Cc1cnc(CN2CCOC(CN(C)c3cccnn3)C2)cn1 (stereo not drawn) read 6.02%.
c1cc(CN2CCC3(CC2)COC(COCC2CC2)C3)cs1 (stereo not drawn) read -0.2627%.
NCc1cccc(-c2cccnc2C(=O)NCCCN2CCOCC2)c1 read 1.311%.
COc1ccc2[nH]c(=O)c(CN(C)C(C)c3ccccn3)cc2c1 (stereo not drawn) read -10% and -8.575% and -8.285%.
COc1cc(N2CCC3(CC(=O)N(Cc4csc(C)n4)C3)C2)ncn1 (stereo not drawn) read 2.102%.
Cc1cnn(CC2CN(CC(=O)Nc3nncs3)CCO2)c1 (stereo not drawn) read 3.134%.
c1cc2n(n1)CC(CNCc1ccc(OCC3CC3)nc1)CN2 (stereo not drawn) read 7.522%.
COc1cccc(CNC(=O)N2CCCC(Cn3cc(CN)nn3)C2)c1 (stereo not drawn) read -16.36% and -15.55%.
[H][C@@]12OCCN(C(=O)CCOc3ccccc3)[C@@]1([H])CC[C@@H]2OC read 7.536%.
Cn1cc(CN2CCCC(n3c(=O)oc4ccccc43)C2)cn1 (stereo not drawn) read -6.553%.
Cc1cc(N2CC(c3n[nH]c4nccnc34)C2)ncn1 read 16.01%.
CC(c1ccccn1)N(C)Cc1cccc(C(=O)Nc2nccn2C)c1 (stereo not drawn) read 2.289%.
CCn1c(CN(C)C)nnc1C1CCN(Cc2cccc(C#N)c2)CC1 read -8.86%.
Cc1cccc(NC2CCN(C(=O)Nc3ccncc3)CC2)n1 read -1.906% and 4.517% and 18.88%.
NC(=O)Cn1cc(NC(=O)N2CCN(c3ccccc3)CC2)cn1 read 1.11%.
Cl.O=S(=O)(c1ccc(Cl)cc1)N1CCc2nc(C3CCNCC3)ncc2C1 read 14.79%.
CC(C)c1nc(CN(C)C2CCN(CCn3cc(C#N)cn3)C2)no1 (stereo not drawn) read 7.618%.
O=C([C@H]1CCCO1)N1CCc2ncc(CN3CCOCC3)n2CC1 read -3.866%.
O=C(NC1CCS(=O)(=O)C1)c1sccc1-c1ccc(F)cc1 (stereo not drawn) read -8.304%.
CNc1cnc(CC2COCCN(Cc3cccc(C)n3)C2)cn1 (stereo not drawn) read 6.918%.
Cc1cccnc1NC(=O)C1CCCN1Cc1ccccc1 (stereo not drawn) read 2.575%.
CCc1nc(C2CCCN2Cc2nccn2Cc2ccccc2)no1 (stereo not drawn) read -24.28%.
COC1CCN(C(=O)Nc2ccccc2)CC(=O)N(C)c2ccccc21 (stereo not drawn) read -42.23%.
c1cnnc(N2CCCC(NCc3ccc(-n4cccn4)cc3)C2)c1 (stereo not drawn) read -1.387%.
CCCC(O)CNc1cncc(Br)c1 (stereo not drawn) read -4.107%.
COCC(=O)N1CCC2(CC1)CC(CC(=O)NC1CC1)c1ccccc12 (stereo not drawn) read -8.837%.
CNC(=O)CN1CCCC12CCN(C(=O)c1ccoc1)CC2.O=C(O)C(F)(F)F read 3.415%.
CN(C)CCNC(=O)c1cc2n(n1)CCN(C(=O)c1ccc[nH]1)C2 read -36.19% and -34.68%.
O=C(O)C(F)(F)F.[H][C@@]12CCN(Cc3ccccc3OC)C[C@]1(COC)CCO2 read 9.114%.
COc1ccccc1CNC(=O)Cn1ncc2c1c(C)nn2C read -13.16%.
CCCn1cc(NC(=O)c2ccc(N(C)CC)cc2)ccc1=O read -4.042%.
Cn1ccc(C(=O)N2CCC3(CC2)CC(Nc2cnccn2)CO3)n1 (stereo not drawn) read 10.05%.
COCCCC1(CO)CCCN(CCS(C)(=O)=O)C1 (stereo not drawn) read -3.188%.
CC(C)n1nnc(CC(=O)NCC2(c3ccccc3F)CCCC2)n1 read 17.65%.
COc1ccccc1OCC(=O)NS(=O)(=O)c1ccc(C)s1 read -10.31%.
CC1c2ncc(CNC(=O)C3CC3)n2CCN1Cc1nccs1.O=C(O)C(F)(F)F (stereo not drawn) read -3.541%.
CC(C)(CNC(=O)COc1cccc(F)c1)C(N)=O read 2.351%.
CN(Cc1ccc2c(c1)OCCO2)C(=O)NCCc1cnn(C)c1 read 1.42%.
[H][C@@]12CCC(=O)N(CCC3=CCCCC3)[C@]1([H])CCN(Cc1cnn(C)c1)C2 read -15.06%.
COc1cnc(C2(O)CCN(C(=O)c3ccccn3)CC2)c(OC)n1 read 16.07%.
CN(C)C1COC2(CCN(C(=O)c3cccc(Cl)c3)CC2)C1.O=C(O)C(F)(F)F (stereo not drawn) read -1.54%.
NC(=O)N1CCC(C(=O)NCc2nncn2-c2ccccc2)CC1 read 6.375%.
CCc1ncc2c(n1)CN(CC(=O)Nc1cccnc1)CC2 read 2.498%.
COCCOc1ccccc1C(=O)NCCN(C)C(C)C read 10.15%.
CCCN1C[C@H](NC(=O)c2ccccc2F)[C@@H](c2ccc(OC)cc2)C1 read 11.39%.
CCCC(NC(=O)c1ccccn1)c1nnc2ccccn12 (stereo not drawn) read -4.994%.
CC1(C(=O)N2CCN(C3CCCC3)CC2)CNCCO1 (stereo not drawn) read 4.145%.
Cc1ccc(C(=O)N2CC[C@@H](N(C)C)[C@@H]2Cc2cnn(C)c2)cn1.O=C(O)C(F)(F)F.O=C(O)C(F)(F)F read 0.4296%.
CC(NC(=O)NCCCO)c1ccc(-c2ccncc2)cc1 (stereo not drawn) read -8.891%.
CCNC(=O)Nc1ncc(-c2cccnc2)s1 read 2.519%.
CN1CC(C(=O)NCCc2ccc3c(c2)OCO3)CC1=O (stereo not drawn) read -1.253%.